PubChem BioAssay AID1259308 – NCATS | 2017
The deposit covers about 59,000 reagents; this is a part drawn at random. Of all reagents, about 1,510 (2.6%) were called active. 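Calls use total luciferase alone and ignore viability, so some active siRNAs may act by altering cell number.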 Further read-outs or replicates are left out here.

- Test: 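Candidate targets for better recombinant protein yield in mammalian cells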 (primary screen)
- System: human HEK293 embryonic kidney cells stably expressing firefly luciferase (HEK-CMV-Luc2-Hygro)
- Reagents: single siRNA against human genes, 0.8 pmol siRNA per well
- Time to read-out: 72 h
- Detection: 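Reporter luminescence and viable-cell signal on separate replicate plates, given as percent of non-targeting control and median/MAD z-scores, plus per-cell luciferase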
- Direction: total luciferase, z-score: higher = more reporter protein produced
- Rule for the call: 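An siRNA counts as active if its total luciferase robust z-score exceeds 3; genes with two or more such siRNAs out of three were retested with fresh siRNAs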
- Meaning of the calls: active = raised luciferase; inactive = no rise

With UBALD2 (UBA like domain containing 2) [SID160763104], how do the results read?
total luciferase, z-score: 0.921; outcome: inactive

For UBALD2 (UBA like domain containing 2) [SID160763105], how do the results read?
total luciferase, z-score: -1.39; outcome: inactive

For UBALD2 (UBA like domain containing 2) [SID160763106], what does the deposit list?
total luciferase, z-score: -0.0388; outcome: inactive

How did the screen score CEP128 (centrosomal protein 128) [SID160732531]?
total luciferase, z-score: 0.0878; outcome: inactive

How did the screen score CEP128 (centrosomal protein 128) [SID160758252]?
total luciferase, z-score: 0.252; outcome: inactive

How did the screen score CEP128 (centrosomal protein 128) [SID160758253]?
total luciferase, z-score: -0.409; outcome: inactive

What is on record for MYCL (MYCL proto-oncogene, bHLH transcription factor) [SID160731258]?
total luciferase, z-score: 1.67; outcome: inactive

How did the screen score MYCL (MYCL proto-oncogene, bHLH transcription factor) [SID160731259]?
total luciferase, z-score: -0.994; outcome: inactive

With MYCL (MYCL proto-oncogene, bHLH transcription factor) [SID160777632], what was measured?
total luciferase, z-score: -0.483; outcome: inactive

How did the screen score ZNF442 (zinc finger protein 442) [SID160749883]?
total luciferase, z-score: -2.19; outcome: inactive

With ZNF442 (zinc finger protein 442) [SID160749884], what does the deposit list?
total luciferase, z-score: 0.853; outcome: inactive

How did the screen score ZNF442 (zinc finger protein 442) [SID160749886]?
total luciferase, z-score: 1.97; outcome: inactive

Which result is listed for FHOD1 (formin homology 2 domain containing 1) [SID160739092]?
total luciferase, z-score: -2.26; outcome: inactive

How did the screen score FHOD1 (formin homology 2 domain containing 1) [SID160739093]?
total luciferase, z-score: -0.992; outcome: inactive

Which result is listed for FHOD1 (formin homology 2 domain containing 1) [SID160739094]?
total luciferase, z-score: 2.6; outcome: inactive

What did the screen give for PCDHGB2 (protocadherin gamma subfamily B, 2) [SID160744768]?
total luciferase, z-score: 0.131; outcome: inactive

What did the screen give for PCDHGB2 (protocadherin gamma subfamily B, 2) [SID160744769]?
total luciferase, z-score: -0.505; outcome: inactive

How did the screen score PCDHGB2 (protocadherin gamma subfamily B, 2) [SID160744770]?
total luciferase, z-score: -0.639; outcome: inactive

With MED6 (mediator complex subunit 6) [SID160723667], what was measured?
total luciferase, z-score: -2.12; outcome: inactive

With MED6 (mediator complex subunit 6) [SID160723675], what was measured?
total luciferase, z-score: -2.14; outcome: inactive

What did the screen give for MED6 (mediator complex subunit 6) [SID160723683]?
total luciferase, z-score: -2.38; outcome: inactive

For UTP11 (UTP11 small subunit processome component) [SID160731351], what was measured?
total luciferase, z-score: -1.44; outcome: inactive

For UTP11 (UTP11 small subunit processome component) [SID160740107], what was measured?
total luciferase, z-score: -1.39; outcome: inactive

With UTP11 (UTP11 small subunit processome component) [SID160740109], what was measured?
total luciferase, z-score: -1.4; outcome: inactive

How did the screen score TAFAZZIN (tafazzin, phospholipid-lysophospholipid transacylase) [SID160717726]?
total luciferase, z-score: -0.14; outcome: inactive

For TAFAZZIN (tafazzin, phospholipid-lysophospholipid transacylase) [SID160717727], what does the deposit list?
total luciferase, z-score: -0.832; outcome: inactive

For TAFAZZIN (tafazzin, phospholipid-lysophospholipid transacylase) [SID160717728], what does the deposit list?
total luciferase, z-score: 0.5; outcome: inactive

For MGAT5 [SID160777209], what does the deposit list?
total luciferase, z-score: 2.53; outcome: inactive

For MGAT5 [SID160777210], how do the results read?
total luciferase, z-score: -0.281; outcome: inactive

For MGAT5 [SID160777212], what was measured?
total luciferase, z-score: 0.25; outcome: inactive

What is on record for DKK3 (dickkopf Wnt signaling pathway inhibitor 3) [SID160732897]?
total luciferase, z-score: 0.841; outcome: inactive

How did the screen score DKK3 (dickkopf Wnt signaling pathway inhibitor 3) [SID160738407]?
total luciferase, z-score: -2.59; outcome: inactive

What did the screen give for DKK3 (dickkopf Wnt signaling pathway inhibitor 3) [SID160738408]?
total luciferase, z-score: -0.153; outcome: inactive

For RPAIN (RPA interacting protein) [SID160752005], what was measured?
total luciferase, z-score: 2.64; outcome: inactive

With RPAIN (RPA interacting protein) [SID160752007], what was measured?
total luciferase, z-score: 0.776; outcome: inactive

What is on record for RPAIN (RPA interacting protein) [SID160752008]?
total luciferase, z-score: -0.402; outcome: inactive

For STXBP1 (syntaxin binding protein 1) [SID160717513], what was measured?
total luciferase, z-score: -1.04; outcome: inactive

For STXBP1 (syntaxin binding protein 1) [SID160717514], what was measured?
total luciferase, z-score: 1.57; outcome: inactive

With STXBP1 (syntaxin binding protein 1) [SID160717515], what was measured?
total luciferase, z-score: 0.364; outcome: inactive

With MFSD2B (MFSD2 lysolipid transporter B, sphingolipid) [SID160766028], how do the results read?
total luciferase, z-score: -0.293; outcome: inactive

With MFSD2B (MFSD2 lysolipid transporter B, sphingolipid) [SID160766029], what does the deposit list?
total luciferase, z-score: -1.5; outcome: inactive

For MFSD2B (MFSD2 lysolipid transporter B, sphingolipid) [SID160766030], how do the results read?
total luciferase, z-score: 0.229; outcome: inactive

Ordered by “total luciferase, z-score” (highest first): some entries from above
MED6 (mediator complex subunit 6) [SID160723667] | total luciferase, z-score: -2.12; outcome: inactive
MED6 (mediator complex subunit 6) [SID160723675] | total luciferase, z-score: -2.14; outcome: inactive
